Converted amounts (≈) assume the structure as drawn.
Legend:
[1] = Solubility of the compound at pH 7.4 by high throughput assay; conditions: buffer
[2] = Lipophilicity, log D of the compound at pH 7.4; conditions: buffer

C[C@H]1CN(c2cccc3nc(-c4nc(-c5cccc(C(=O)N(C)C)c5)cnc4N)n(C)c23)CCN1
solubility [1]: 201 µM (≈ 94.6 µg/mL) | logD [2]: 1.7
